For 114 substances, growth estimate results are on record in the supplement of paper PMC5949888.

Most values lie at the floor of the assay. Slopes are relative: functional sequences can read slightly below zero.

The data set concerns Saccharomyces cerevisiae PS128 hsf1 delta, HSF1(1-493) fusion. Description: growth estimate (transactivation domain function in HSF1 fusion, heat-shock survival) (a.u. (slope of normalised read count over time)); higher = stronger growth at 37°C, i.e. more transactivation activity. The following applies: library: random library. How it is done: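 Random 60-nt DNA library encoding peptides of up to 20 aa, fused to the C-terminus of yeast HSF1 residues 1-493 (C-terminal TAD deleted) and expressed from the native HSF1 promoter on a CEN plasmid in hsf1-deleted S. cerevisiae PS128. Cells were selected at 37°C on -trp 5-FOA plates for 0, 2, 4, 6 and 8 days and amplicons were sequenced. Growth estimate is the slope of a robust linear fit of total-sum-normalised read counts (normalised to the first time point) over time, using at least 2 replicates. Sequences are classed functional (TAD activity) above a threshold of -0.13, set from stop-codon control sequences.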
Take VPLS: the growth estimate is less than -0.25.

Regarding LGDKRILLRWCARADEKNRE, the growth estimate was less than -0.25.

In the case of LRSLFETRDSVNEWILPYTT, the growth estimate is less than -0.25.

PGHNYRGVVSPRPIVRKMRA: the growth estimate was less than -0.25.

With ADADLLMC, the growth estimate is less than -0.25.

TAGGHVVGSRLIGPCSKVYG: the growth estimate was less than -0.25.

IQLHVLRRFLPAMWLC: the growth estimate is less than -0.25.

Consider CWVATAPFLA, for which the growth estimate is less than -0.25.

With NAEAGLETHGLCVHTNLREA, the growth estimate was less than -0.25.

For the substance DRNGRHRWDVIQYTT, the growth estimate is less than -0.25.

DGGAHRQ: the growth estimate was less than -0.25.

Take LAKYGAGSQGIHPSL: the growth estimate is less than -0.25.

For the substance KAGANAIYNPRMLSGASHDR, the growth estimate is less than -0.25.

RLMFAVRN: the growth estimate is less than -0.25.

Take LPNPNSRRLGV: the growth estimate is less than -0.25.

For STSIIGKDGTTTHHSDQLPV, the growth estimate was less than -0.25.

In the case of VPATDTAEVCGTGVRG, the growth estimate was less than -0.25.

Consider LRPSTMAACSEYAYSRYLGR, for which the growth estimate is less than -0.25.

Consider IYIIQAGNFVGRRAGRARSS, for which the growth estimate was less than -0.25.

Regarding PKIRRTRVLHCRLASKPVPY, the growth estimate is less than -0.25.

For PVSGLEPAFSIIDACFSIIR, the growth estimate is less than -0.25.

On to TIYWTC, for which the growth estimate is less than -0.25.

Take DEG: the growth estimate is less than -0.25.

For the substance QTRLDPDNSITYRG, the growth estimate is less than -0.25.

RGFVKRLLTGAAGLATEQQP: the growth estimate is less than -0.25.

Turning to RAFSTCPKYVAFVPRSESTP, the growth estimate is less than -0.25.

In the case of LIARQGKLLNLTG, the growth estimate was less than -0.25.

As for TLIVGQRGKGPALQYYVGRQ, the growth estimate is less than -0.25.

On to TCLELFPRDHRAPTTLLFKR, for which the growth estimate is less than -0.25.

For the substance SIPCKALLGDVVGRVRVSWR, the growth estimate is less than -0.25.

In the case of AEAELDLGYIPNTLGDTPQD, the growth estimate is less than -0.25.

Regarding WTFFLESTVSSGR, the growth estimate was less than -0.25.

Regarding LWTLSGTAWCGGLVDPLSGR, the growth estimate is less than -0.25.

Consider GEKPPALVLISCSGVAFIGA, for which the growth estimate was less than -0.25.

On to QTGESVRPCQHGTGSPLWGQ, for which the growth estimate was less than -0.25.

On to RGSVWSIEWPGTGLATS, for which the growth estimate was less than -0.25.

For RVIPTVALCA, the growth estimate is less than -0.25.

Take GKATVMGVTLSPHRVHSDYS: the growth estimate was less than -0.25.

Regarding AQSKGFCGALVFASKQVARV, the growth estimate was less than -0.25.

TCRQGTWGRSAWGDGLRRPV: the growth estimate was less than -0.25.

Take PRRSISIHSRIGHPERCRGL: the growth estimate is less than -0.25.

Take QLMGG: the growth estimate was less than -0.25.

For the substance LPELSALTKTYNNTGPSISC, the growth estimate was less than -0.25.

As for CTGFMR, the growth estimate is less than -0.25.

Take EAGICVGNPALPQVVLWYKC: the growth estimate is less than -0.25.

As for GWCCITD, the growth estimate is less than -0.25.

Take YALA: the growth estimate was less than -0.25.

For the substance GGQL, the growth estimate was less than -0.25.

On to GGDYPLYKDGRGTVDDTLGW, for which the growth estimate was less than -0.25.

In the case of GYRAV, the growth estimate is less than -0.25.

For the substance DLLIRSIVLQKDTQADTSIR, the growth estimate was less than -0.25.

Regarding ELTWMVWPTTLYVGVWSPAH, the growth estimate is less than -0.25.

As to MEGPWMSET, the growth estimate is less than -0.25.

Consider CTELLNLFRGEGMVSTGYSR, for which the growth estimate was less than -0.25.

As to AVHRLYAVGKGDLGDLKWTG, the growth estimate was less than -0.25.

For the substance IIRMPPGIEHASGSI, the growth estimate was less than -0.25.

As to RTTEPTRPCFWR, the growth estimate was -0.243.

Take LRQAIR: the growth estimate was -0.196.

For the substance GSETAS, the growth estimate was less than -0.25.

As for RYNV, the growth estimate was less than -0.25.

Turning to EVI, the growth estimate was less than -0.25.

For the substance FSLPVWFFGVVVCLAIPLVL, the growth estimate is less than -0.25.

For TPGWRLRLMR, the growth estimate is less than -0.25.

For the substance VANRWGNESAWDGSCAGLWH, the growth estimate was 0.14.

With HYVWSPELP, the growth estimate is less than -0.25.

With SSPSLL, the growth estimate was less than -0.25.

Turning to VGVPHTLAGSPLASEYAE, the growth estimate was less than -0.25.

For HRGPLLLPVRG, the growth estimate is less than -0.25.

Regarding NHVHRCGSICIG, the growth estimate was less than -0.25.

Turning to RSFAV, the growth estimate is less than -0.25.

Take PVLLTYISAAISLEYSLIII: the growth estimate is less than -0.25.

With RSSRSLISSVVSWYNEKLEP, the growth estimate was less than -0.25.

LSTREVYTWHNG: the growth estimate was less than -0.25.

As for RGIAWVALTFRDVQLGEGAH, the growth estimate is less than -0.25.

On to AKSQLASRQTSLAAG, for which the growth estimate is less than -0.25.

In the case of KTKGEPPLREDAVRSPQKWA, the growth estimate was less than -0.25.

Take LNPEALRRDQMIMRASIVPQ: the growth estimate is less than -0.25.

As for TGKASEQLGDGDYIWPKSGV, the growth estimate is less than -0.25.

Regarding LVWSPTRGFSKVKEWFC, the growth estimate is less than -0.25.

As for YGGLTAHVRIVDGNRGNLPI, the growth estimate is less than -0.25.

For SLRPR, the growth estimate was less than -0.25.

In the case of MYFQAGVCSQGISPDMKTTK, the growth estimate is less than -0.25.

As for SGTGSSVRKRIVSFSS, the growth estimate was less than -0.25.

Turning to PWNPNARLYGQPEVPVFTAS, the growth estimate is less than -0.25.

In the case of RVPQVPFEDGLRGLR, the growth estimate is less than -0.25.

NLSSRVPLR: the growth estimate is less than -0.25.

Regarding CFVRDPYLVSSVANVQCGLR, the growth estimate is less than -0.25.

On to RRWRIPLTGDEMSSLQNCKG, for which the growth estimate is less than -0.25.

Regarding CDCVS, the growth estimate was less than -0.25.

Take LQMA: the growth estimate is less than -0.25.

Turning to TLSAERTRDTDCSLVDRYAA, the growth estimate is less than -0.25.

With LGVS, the growth estimate is -0.245.

For DEEDVCKMISESMFRVIHPG, the growth estimate is less than -0.25.

On to RWGGQCQPGQRVCSVVQQK, for which the growth estimate was less than -0.25.

LLGRPKDSPGRFWTRLSELG: the growth estimate is less than -0.25.

Turning to SVNRGQVHEAYTNRAYSIRG, the growth estimate was less than -0.25.

GTPTRPSGAH: the growth estimate was -0.219.

As to GLVCCEFKVSLRLAYQGNRA, the growth estimate was less than -0.25.

In the case of CPSAATCVHSER, the growth estimate is less than -0.25.

For the substance TVFP, the growth estimate is less than -0.25.

Regarding QFPPGSYVQIRGAMPPLQKV, the growth estimate is less than -0.25.

Turning to DTQLLHQDGCPSWWDIRVWG, the growth estimate is less than -0.25.

As for SSHYRADRFLPLGSRLLTVL, the growth estimate was less than -0.25.

Take VSQFLWVAGLRHATAAPARP: the growth estimate was less than -0.25.

For the substance VYRVLKSERS, the growth estimate was less than -0.25.

As for SEVCNGLVWWVVAGEGPVSG, the growth estimate is less than -0.25.

For the substance RGIDLSTGAEREPMREALRF, the growth estimate was less than -0.25.

With IFTTGTDLSRVLASPLPDKI, the growth estimate was less than -0.25.

Regarding CDIGLASSLAPA, the growth estimate is less than -0.25.

For the substance GNGIRERATTRLVRECQKDI, the growth estimate is less than -0.25.

As for CYYRPLRGSNNISYIE, the growth estimate is less than -0.25.

For the substance GDMLPSKRGMFGGGVDYGFS, the growth estimate was less than -0.25.

As for YWCSSLEGVPDT, the growth estimate was less than -0.25.

Turning to KLQGTNTVKNFTRRVSAVTK, the growth estimate is less than -0.25.
